# Data source: PubChem BioAssay AID652243 (Drosophila RNAi Screening Center, 2013)
# Assay: 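Fly genes required for human androgen receptor driven transcription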 (primary screen)
# Cells: Drosophila S2R+ cells
# Reagents: long dsRNA against Drosophila genes
# Duration: 72 h (48 h, then 24 h hormone)
# Challenge: synthetic androgen R1881 at 10 nM for 24 h
# Detection: 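Firefly light from an androgen-responsive reporter and Renilla control light per well, raw and unnormalised, for each of two replicates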
# Direction: firefly reporter light: higher = more light from androgen-responsive reporter; Renilla control light: higher = more constitutive control signal (cell number, transfection)
# Active means: 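Hit when the log firefly-to-Renilla ratio dropped or increased by a fixed fold versus the mean of GFP or LacZ controls across duplicate plates; lowering cut given as 1.5 and as 3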
# Calls: active = hit: reporter lowered or raised; inactive = no hit
# The screen tested about 24,000 reagents; shown is an unselected part of those with a known target gene and a result. In the full data, 246 (1%) are marked active. 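Plates not normalised; calls are printed but the firefly/Renilla ratio behind them is not deposited; fold cut for lowering reported inconsistently.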 Raw values vary from plate to plate and are shown uncorrected. Names joined by + are all predicted targets of the reagent. Not given: the amount of reagent.
target,amplicon,"firefly reporter light, replicate 1","firefly reporter light, replicate 2","Renilla control light, replicate 1","Renilla control light, replicate 2",Outcome
EcR,DRSC04906,3.77e5,3.74e5,1.91e6,1.50e6,inactive
EcR,DRSC04910,1.48e6,1.20e6,2.31e6,2.49e6,inactive
EcR,DRSC39130,1.75e6,1.19e6,1.67e6,1.26e6,inactive
CG13404,DRSC19536,6.66e5,5.43e5,3.16e6,3.74e6,inactive
nuf,DRSC11379,1.32e5,1.10e5,1.29e6,1.00e6,inactive
nuf,DRSC23276,1.13e6,7.45e5,2.92e6,2.15e6,inactive
nuf,DRSC26784,3.36e5,3.28e5,7.01e5,7.02e5,inactive
nuf,DRSC29086,3.92e5,3.56e5,1.14e6,1.08e6,inactive
CG15649,DRSC04240,3.29e5,3.12e5,2.12e6,2.48e6,inactive
CG15649,DRSC29626,5.14e5,4.57e5,1.56e6,1.56e6,inactive
CG42560 + CG42559,DRSC21873,6.12e5,7.33e5,4.26e5,4.15e5,inactive
c12.1,DRSC18750,3.45e5,3.99e5,2.76e6,3.82e6,inactive
c12.1,DRSC25556,5.13e5,6.45e5,8.34e5,6.89e5,inactive
CG1578,DRSC19729,1.31e5,1.04e5,8.73e5,8.25e5,inactive
CG1578,DRSC26369,3.61e5,3.33e5,5.63e5,5.99e5,inactive
CG15617,DRSC06570,82093,1.39e5,1.22e6,1.22e6,inactive
CG15617,DRSC27918,7.34e5,4.37e5,1.37e6,6.75e5,inactive
CG2217 + CG42740,DRSC14141,69846,1.22e5,6.97e5,8.34e5,inactive
CG17807,DRSC04296,6.59e5,4.85e5,1.48e6,1.54e6,inactive
CG17807,DRSC26388,2.85e5,2.14e5,6.44e5,5.72e5,inactive
corto,DRSC22988,9.47e5,1.03e6,1.16e5,1.72e5,inactive
corto,DRSC25778,3.27e5,3.32e5,8.36e5,5.97e5,inactive
CG6996,DRSC10758,2.46e5,1.93e5,2.58e6,2.67e6,inactive
CG32719,DRSC17525,8.48e5,5.56e5,1.25e6,1.04e6,inactive
CG32719,DRSC26765,3.28e5,3.42e5,4.57e5,6.03e5,inactive
CG5906,DRSC10557,1.71e5,1.62e5,2.11e6,1.41e6,inactive
CG14352,DRSC00382,93112,88839,7.41e5,9.04e5,inactive
Vps35,DRSC04519,9.68e5,2.00e5,1.41e6,6.00e5,inactive
Vps35,DRSC28790,3.76e5,3.60e5,1.52e6,1.09e6,inactive
Qtzl,DRSC01221,1.57e5,2.97e5,9.53e5,8.21e5,inactive
Oseg5,DRSC03209,1.49e5,1.44e5,1.21e6,1.48e6,inactive
del,DRSC03170,8.30e5,6.99e5,2.34e6,1.65e6,inactive
CG11593,DRSC08206,1.64e5,1.07e5,9.48e5,1.03e6,inactive
yuri,DRSC01453,1.11e5,1.26e5,3.61e5,4.34e5,inactive
yuri,DRSC01943,1.80e5,1.82e5,2.01e6,2.31e6,inactive
yuri,DRSC01972,7.57e5,5.29e5,1.83e6,1.49e6,inactive
yuri,DRSC28910,5.37e5,4.35e5,9.07e5,1.00e6,inactive
Sbds,DRSC10992,1.08e6,9.60e5,1.18e6,1.65e6,inactive
Ir60d,DRSC04218,3.79e5,3.57e5,2.87e6,2.76e6,inactive
CG10337,DRSC02038,1.28e5,1.59e5,1.38e6,1.38e6,inactive
Efr,DRSC18322,3.62e5,3.06e5,2.36e6,2.30e6,inactive
Efr,DRSC26945,4.02e5,3.11e5,9.95e5,5.18e5,inactive
CG31068,DRSC13820,1.45e5,77977,1.54e5,1.71e5,inactive
CG32354,DRSC10763,1.01e6,8.63e5,1.37e6,1.70e6,inactive
CG32354,DRSC10775,2.45e5,1.47e5,2.12e6,1.96e6,inactive
CG32354,DRSC21919,1.06e6,8.76e5,1.84e6,1.19e6,inactive
tkv,DRSC03623,9.32e5,1.23e6,1.54e6,2.29e6,inactive
tkv,DRSC22606,6.57e5,6.65e5,1.39e6,1.47e6,inactive
tkv,DRSC25957,2.64e5,3.93e5,5.95e5,7.11e5,inactive
cona,DRSC16281,1.90e5,1.61e5,2.19e6,1.65e6,inactive
Coq2,DRSC16516,86986,91771,1.86e6,1.48e6,inactive
Coq2,DRSC21366,8.90e5,6.69e5,3.07e6,2.72e6,inactive
Coq2,DRSC29659,4.34e5,6.79e5,6.19e5,6.19e5,inactive
dia,DRSC03519,83223,76107,1.28e6,1.14e6,inactive
dia,DRSC24127,6.26e5,5.65e5,3.79e5,3.98e5,inactive
eEF1beta,DRSC07419,3.45e5,4.40e5,5.52e5,4.07e5,inactive
eEF1beta,DRSC24367,5.64e5,4.82e5,7.72e5,6.44e5,inactive
Cpr49Ag,DRSC07203,4.58e5,3.33e5,2.45e6,2.42e6,inactive
Cpr49Ag,DRSC28612,4.51e5,3.52e5,1.72e6,1.62e6,inactive

Looked up above.
Result of CG17807 [DRSC26388] under “Renilla control light, replicate 2”: 5.72e5
c12.1 [DRSC25556], Renilla control light, replicate 2 → 6.89e5
yuri [DRSC01972], Renilla control light, replicate 2 = 1.49e6
Coq2 [DRSC21366], Outcome = inactive
